Measured values as given in the supplement of paper PMC3334620.
In all, about 33,000 sequences were measured (“E-score (-0.5 to 0.5)”: median about -0.0034, highest 2% from about 0.25 on). Some of the results follow.

molecular target: T1, Yap3 (UniProt P38749); assay: PBM E-score (8-mer binding enrichment) (E-score (-0.5 to 0.5)); higher = stronger / more preferred TF binding; settings: protein concentration: 100 nM; construct: GST-full length
T1 sequence: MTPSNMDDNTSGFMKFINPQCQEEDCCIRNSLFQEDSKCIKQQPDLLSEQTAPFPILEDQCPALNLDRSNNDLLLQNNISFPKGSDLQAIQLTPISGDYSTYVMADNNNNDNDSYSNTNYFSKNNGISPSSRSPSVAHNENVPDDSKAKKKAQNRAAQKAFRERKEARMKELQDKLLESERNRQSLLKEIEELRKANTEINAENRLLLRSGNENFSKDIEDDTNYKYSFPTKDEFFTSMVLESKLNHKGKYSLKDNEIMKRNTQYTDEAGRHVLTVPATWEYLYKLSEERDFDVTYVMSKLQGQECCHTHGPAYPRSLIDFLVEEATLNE
Description: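 Universal 'all 10-mer' protein binding microarrays (Agilent AMADID 015681) probed with GST-tagged S. cerevisiae TFs (full-length or DBD) made by in vitro transcription/translation (PURExpress), about 100-200 nM. Bound TF was detected with fluorescent anti-GST. Each ungapped 8-mer (which stands for itself and its reverse complement) is scored by the PBM enrichment score (E-score), a modified Wilcoxon-Mann-Whitney statistic from -0.5 to +0.5, computed with the Universal PBM Analysis Suite. Scale: above 0.35 generally sequence-specific binding.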

Q: For GACTAGGA, which “PBM E-score” value is on record?
A: 0.0497

Q: How did the “PBM E-score” value turn out when ACTACACG was run?
A: 0.0255

Q: With ATCTTTTG as the sequence, how does the “PBM E-score” value read?
A: -0.0206

Q: Which “PBM E-score” value does the source give for AGTTCTTC here?
A: 0.0089

Q: CCTTTCGA was tested. Which “PBM E-score” value did it give?
A: -0.0865

Q: For GCGCTTTA, which “PBM E-score” value is on record?
A: 0.104

Q: How did the “PBM E-score” value turn out when CGCTTCAA was run?
A: 0.0858

Q: With GCTGACAC as the sequence, how does the “PBM E-score” value read?
A: -0.0348

Q: With CATTCGTA as the sequence, how does the “PBM E-score” value read?
A: 0.101

Q: With AGGGGTCA as the sequence, how does the “PBM E-score” value read?
A: -0.211

Q: For TACTCTAA, which “PBM E-score” value is on record?
A: 0.13

Q: With ACATCATG as the sequence, how does the “PBM E-score” value read?
A: -0.0583

Q: With ATGGCCCG as the sequence, how does the “PBM E-score” value read?
A: -0.0698

Q: How did the “PBM E-score” value turn out when AAGGCTCA was run?
A: -0.136

Q: AAGTTGCC was tested. Which “PBM E-score” value did it give?
A: -0.0508

Q: AATAGTAA was tested. Which “PBM E-score” value did it give?
A: 0.258

Q: With AGCGGGGG as the sequence, how does the “PBM E-score” value read?
A: -0.236

Q: For CAGGCGAA, which “PBM E-score” value is on record?
A: -0.0562

Q: Which “PBM E-score” value does the source give for ACTGGGAG here?
A: -0.157

Q: For CGGCGAGC, which “PBM E-score” value is on record?
A: 0.0519

Q: With GCGATAAA as the sequence, how does the “PBM E-score” value read?
A: 0.174

Q: AACGCGCT was tested. Which “PBM E-score” value did it give?
A: -0.012

Q: How did the “PBM E-score” value turn out when CCACTGGC was run?
A: -0.155

Q: Which “PBM E-score” value does the source give for GCAAATTA here?
A: 0.262

Q: How did the “PBM E-score” value turn out when CCTGCAAG was run?
A: -0.231

Q: Which “PBM E-score” value does the source give for CGAAGACA here?
A: -0.0295

Q: With AGGCACTG as the sequence, how does the “PBM E-score” value read?
A: 0.0224

Q: For TGACGGAA, which “PBM E-score” value is on record?
A: 0.166

Q: For AGAGCCCT, which “PBM E-score” value is on record?
A: -0.176

Q: ACAACACG was tested. Which “PBM E-score” value did it give?
A: 0.17

Q: For CCATACGG, which “PBM E-score” value is on record?
A: -0.0632

Q: For TTAGGCAA, which “PBM E-score” value is on record?
A: -0.107

Q: Which “PBM E-score” value does the source give for AATTACAA here?
A: 0.151

Q: Which “PBM E-score” value does the source give for AACATAAA here?
A: 0.156

Q: GGGGACGA was tested. Which “PBM E-score” value did it give?
A: -0.18

Q: How did the “PBM E-score” value turn out when AGATTTAT was run?
A: 0.0637

Q: For CATCTGGG, which “PBM E-score” value is on record?
A: -0.0567

Q: For GCTTAGCC, which “PBM E-score” value is on record?
A: -0.147

Q: Which “PBM E-score” value does the source give for ACAATCTA here?
A: 0.016

Q: With GGGATGCA as the sequence, how does the “PBM E-score” value read?
A: -0.105

Q: AGACACGA was tested. Which “PBM E-score” value did it give?
A: 0.108

Q: TGACTGAA was tested. Which “PBM E-score” value did it give?
A: -0.00521

Q: For AACTAGAG, which “PBM E-score” value is on record?
A: 0.0154

Q: Which “PBM E-score” value does the source give for ATCTACCG here?
A: 0.143

Q: How did the “PBM E-score” value turn out when ACGGCTTA was run?
A: 0.0716

Q: For CGCACACC, which “PBM E-score” value is on record?
A: -0.06

Q: GATCTAAA was tested. Which “PBM E-score” value did it give?
A: 0.0637

Q: How did the “PBM E-score” value turn out when GGGAGCGA was run?
A: -0.174

Q: ATCACTCA was tested. Which “PBM E-score” value did it give?
A: 0.0665

Q: ACTAGAGG was tested. Which “PBM E-score” value did it give?
A: -0.271

Q: For CCGAGTGA, which “PBM E-score” value is on record?
A: 0.0249

Q: GACTCGCC was tested. Which “PBM E-score” value did it give?
A: -0.0971

Q: GATACTCA was tested. Which “PBM E-score” value did it give?
A: 0.0287

Q: How did the “PBM E-score” value turn out when ACGAAATG was run?
A: 0.145

Q: AGCAGAGA was tested. Which “PBM E-score” value did it give?
A: -0.0117

Q: GGCGAAAA was tested. Which “PBM E-score” value did it give?
A: 0.256

Q: For AGCGCCGC, which “PBM E-score” value is on record?
A: 0.0174

Q: Which “PBM E-score” value does the source give for GTCGTCGA here?
A: -0.118

Q: How did the “PBM E-score” value turn out when CACCCGAA was run?
A: 0.0804

Q: With AATGCCGA as the sequence, how does the “PBM E-score” value read?
A: 0.0462

Q: AGAAGGCA was tested. Which “PBM E-score” value did it give?
A: -0.115

Q: With CCGAGCAC as the sequence, how does the “PBM E-score” value read?
A: 0.0323

Q: How did the “PBM E-score” value turn out when CCATCGCG was run?
A: 0.106

Q: Which “PBM E-score” value does the source give for GCATTTAA here?
A: 0.187

Q: For GAAGTCCA, which “PBM E-score” value is on record?
A: -0.159

Q: How did the “PBM E-score” value turn out when GACTAGCA was run?
A: -0.168

Q: For AATCGAAT, which “PBM E-score” value is on record?
A: 0.25

Q: With GCCCAGGA as the sequence, how does the “PBM E-score” value read?
A: -0.229

Q: How did the “PBM E-score” value turn out when TAACTATA was run?
A: 0.16

Q: For GCGGCAGC, which “PBM E-score” value is on record?
A: -0.154

Q: For CTGCCGCA, which “PBM E-score” value is on record?
A: -0.103

Q: How did the “PBM E-score” value turn out when CTATAATC was run?
A: 0.191

Q: With ACGCTGTA as the sequence, how does the “PBM E-score” value read?
A: 0.119

Q: With ACGTAGGA as the sequence, how does the “PBM E-score” value read?
A: -0.0175

Q: CTTTAGAA was tested. Which “PBM E-score” value did it give?
A: 0.0391

Q: AATTTGTG was tested. Which “PBM E-score” value did it give?
A: 0.148

Q: With AAGGACAA as the sequence, how does the “PBM E-score” value read?
A: 0.0635

Q: Which “PBM E-score” value does the source give for GGCAAGCC here?
A: -0.225

Q: AAACTTCT was tested. Which “PBM E-score” value did it give?
A: 0.15

Q: How did the “PBM E-score” value turn out when TAGCGCAA was run?
A: 0.0958

Q: How did the “PBM E-score” value turn out when GCGTATTA was run?
A: 0.148

Q: For GTAGCGCA, which “PBM E-score” value is on record?
A: -0.0637

Q: CCGGCTAA was tested. Which “PBM E-score” value did it give?
A: 0.1

Q: Which “PBM E-score” value does the source give for AACGCACT here?
A: 0.0215

Q: For CTGGGACA, which “PBM E-score” value is on record?
A: -0.0507

Q: How did the “PBM E-score” value turn out when ATTAGTCG was run?
A: 0.12
